# Reference: US10064844B2, “Pharmaceutical compositions comprising an aromatse inhibitors” (MEREO BIOPHARMA 2 LIMITED, priority 2011, dated 2018)
# At least one compound was matched to its structure with a doubt left.
# Key:
# [1] = tested on: estrone, estrone sulfate and estradiol; assay: Single ascending dose study in women: pharmacodynamics (estrogen suppression); assay type: in vivo, human
# Protocol: Patients received either 0.1 mg, 1 mg, and 10 mg drug substance containing hard gelatin capsules as described in Example 2 or appropriate matching placebo capsules.
# A […] (MTD) was not reached. […] Table 4 presents the PK parameters based on preliminary analysis of the concentration-time profile obtained from this study.
# There were no changes in bone density by DEXA after 6 months.
# [2] = tested on: other enzymes involved in steroid hormone synthesis or metabolism; assay: Single ascending dose study in women: other steroid hormone enzymes and hormone levels; assay type: in vivo, human; conditions: steroids in 24 hour urine collections
compound,measurement,setting,value
"N#Cc1ccc(C(F)(c2ccc(C#N)cc2)n2cncn2)cc1 [CGP47645, 4,4′-[fluoro-(1-H-1,2,4-triazol-1-yl)methylene]bisbenzonitrile]",estrone suppression compared with letrozole,"[1]; doses of 0.1 mg and 0.3 mg, letrozole 2.5 mg as positive control",at least equal to letrozole
same,"inhibition of estrone, estrone sulfate and estradiol","[1]; single ascending doses, women",dose-dependent inhibition
same,"changes in androgen levels, progesterone, aldosterone, cortisol, ACTH, or 17-keto or 17-OH steroids",[2],no changes
